From PubChem BioAssay AID493014 (National Center for Advancing Translational Sciences (NCATS), 2011)
Hit rate of the full screen: of about 340,000 compounds, about 170 (0.05%) were called active. Inconclusive results, whose numbers are uncertain, are shown with a selection of clear calls. The call rests on the fitted dose curve; in most records, active means well fitted inhibition curve with a large enough effect in the signal ratio, with a control signal flat (not every such curve was filed as active); inconclusive means small, poorly fitted or top-dose-only effect, or effect the other way, or a change in a side signal; inactive means flat fitted curve, though single readings scatter; the % refers to the signal ratio. Where the call is inconclusive, the potency comes from a doubtful curve fit.

Test: qHTS Assay to Find Inhibitors of Chronic Active B-Cell Receptor Signaling;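 on activity change, negative = inhibition: plate controls were basal doxycycline-induced cells for no effect and cells given 10 µM MG132 for full effect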
Conditions: ABC-DLBCL IkBa-CBG/CBR reporter, luminescence ratio (green luciferase fused to IkBa over red control in TMD8 lymphoma cells), 4 h; activity change, negative = inhibition: at 46.1 µM (top of the series)
Summary of the method: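 TMD8 ABC-DLBCL cells carrying doxycycline-inducible green luciferase fused to IkappaBalpha plus unfused red luciferase were exposed to compounds (up to 46 uM) for 4 hrs at 37C. Activity came from the overlap-corrected green/red luminescence ratio.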
Potency means the concentration at half of the fitted maximal effect.

Row | Compound | activity change, negative = inhibition | Potency
1 | Cc1cccc(C2Nc3ccccc3C(=O)N2NC(=O)c2ccc([N+](=O)[O-])cc2)n1 (centres undefined) | inconclusive: 5.02% | –
2 | Cc1nc(N/N=C/c2ccc(O)cc2O)cc(N2CCOCC2)n1 | inconclusive: -9.09% | –
3 | C[C@@H]1CN([C@@H](C)CO)C(=O)c2cccc(NC(=O)C3CCCCC3)c2O[C@@H]1CN(C)Cc1ccc(Cl)c(Cl)c1 | inconclusive: -7.78% | –
4 | COC(=O)c1cccc(Nc2c(-c3ccc(SC)cc3)nc3nc[nH]n23)c1 | – | inconclusive: 12.6 µM [falling, partial curve]
5 | COc1cc(/C=N/Nc2cccc(C)c2)cc(Br)c1O | inactive | –
6 | CC(=O)c1cccc(NC(=O)COc2ccc3oc(=O)cc(C)c3c2)c1 | inactive | –
7 | CC(C)CSc1nnc2c(n1)[nH]c1ccccc12 | inconclusive: -23.5% | –
8 | C=C(C)COc1ccc(-c2n[nH]c(C)c2-c2ccccc2OC)c(O)c1 | inconclusive: 5.14% | –
9 | CCOC(CNC(=O)c1cccn2c(=O)c3cc(Cl)ccc3nc12)OCC | – | inconclusive: 6.51 µM [rising, single point]
10 | Cc1ccc(NC(=O)c2ccc(COc3ccccc3)o2)nc1 | inconclusive: 0.209% | –
11 | CCc1nnc(NC(=O)c2ccc(S(=O)(=O)N(CCOC)CCOC)cc2)o1 | inactive | –
12 | Cc1ccccc1NC(C)C(=O)N/N=C/c1ccccc1OCc1cccc(Br)c1 (centres undefined) | – | inconclusive: 4.47 µM [rising, full curve, poor fit]
13 | CC(C)(C)C(C(=O)n1cccc1C#N)c1ccccc1 (centres undefined) | inactive | –
14 | COc1ccc(CN2CC(C(=O)N3CC(C)CC(C)C3)CC2=O)cc1 (centres undefined) | inactive | –
15 | Cc1ccc(C(=O)N/N=C(\CC(C)C)c2ccccc2)cc1 | – | inconclusive: 29.1 µM [cytotoxic, single point]
16 | CCOC(=O)c1c(NC(=O)COC(=O)/C=C/c2ccco2)sc2c1CC(C)(C)NC2(C)C | inactive | –
17 | O=[N+]([O-])c1ccc(N/N=C/c2ccc(OCc3cccc4ccccc34)cc2)nc1 | inconclusive: 24.6% | –
18 | O=c1[nH]c(SCc2ccc(Cl)cc2)nc2ccccc12 | inconclusive: 7.58% | –
19 | N#CCC(=O)N/N=C/c1coc2ccccc2c1=O | inactive | –
20 | CC(C)c1cc(NC(=O)CCl)on1 | inconclusive: -21.2% | –
21 | Cc1cc(C=O)c(C)n1-c1ccc(NC2CCCCC2)c([N+](=O)[O-])c1 | inconclusive: 0.203% | –

Row | Compound | activity change, negative = inhibition | Potency
22 | CCCCN(CCCC)Cc1cc2ccccc2c2c1COC2 | inactive | –
23 | CC(=O)Nc1ccc(NC(=O)C2CC(=O)N(c3cccc(C)c3C)C2)cc1 (centres undefined) | inactive | –
24 | CCC(=O)NCCNc1nc2cc(C)c(C)cc2cc1C#N | inactive | –
25 | COc1cccc(-c2cc(C(=O)NC3CCCCC3)no2)c1 | – | inconclusive: 5.62 µM [rising, partial curve]
26 | COc1ccccc1C(=O)NCC(=O)N/N=C/c1ccncc1 | inconclusive: 0.261% | –
27 | Cn1c(NCc2ccco2)nc2c1c(=O)n(Cc1ccc(Cl)cc1)c(=O)n2C | inactive | –
28 | COc1ccc(C2c3ccc(O)cc3Oc3ncn(CCN4CCOCC4)c(=N)c32)cc1OC (centres undefined) | inconclusive: -1.79% | –
29 | CCc1ccc(CNC(=O)CN2C(=O)CSc3ccc(S(=O)(=O)N4CCOCC4)cc32)cc1 | inconclusive: 7.4% | –
30 | COc1cc(C(=O)Nc2ccc3c(c2)CCN3C(C)=O)cc(OC)c1OC | – | inconclusive: 22.4 µM [falling, single point]
31 | CCOC(=O)c1nc(NCCc2ccccc2)sc1C | inconclusive: -0.255% | –
32 | O=Cc1ccc(OCCCOc2cccc3cccnc23)cc1 | – | inconclusive: 25.1 µM [falling, single point]
33 | Clc1ccc(C[n+]2cc(-c3ccc(Cl)cc3)n3c2CCC3)cc1 | inconclusive: 467% | –
34 | O=C(O)c1cc([N+](=O)[O-])ccc1NCc1ccccn1 | – | inconclusive: 2.31 µM [falling, partial curve, poor fit]
35 | CC(=O)N1c2ccc3ccccc3c2C2C=CCC2C1c1ccc(Br)cc1 (centres undefined) | – | inconclusive: 16.4 µM [falling, partial curve]
36 | O=C(NCCN1CCOCC1)/C(=C/c1ccc(Cl)cc1)NC(=O)c1ccccc1 | inactive | –
37 | COc1ccc(NC(=O)c2cc(-c3cccs3)on2)cc1 | – | inconclusive: 22.4 µM [falling, partial curve, poor fit]
38 | Cc1cccc(OCc2nnc(SCC(=O)N(C)C3CCCCC3)o2)c1 | inactive | –
39 | Nc1cc(=O)[nH]c(SCc2csc(-c3ccccc3)n2)n1 | inconclusive: -5.6% | –
40 | COc1ccc(OC)c(NC(=O)CCN2CCN(c3ccccc3F)CC2)c1 | inactive | –
41 | C=CCOc1cccc(C2C(C(=O)c3ccco3)=C(O)C(=O)N2Cc2ccncc2)c1 (centres undefined) | inactive | –
42 | Cc1cc(SCC(=O)c2cccs2)n2nc(C)c(-c3ccc(Cl)cc3)c2n1 | inconclusive: 5.8% | –

As a short view, some entries already given:
Row | Compound | activity change, negative = inhibition | Potency
30 | COc1cc(C(=O)Nc2ccc3c(c2)CCN3C(C)=O)cc(OC)c1OC | – | inconclusive: 22.4 µM [falling, single point]
31 | CCOC(=O)c1nc(NCCc2ccccc2)sc1C | inconclusive: -0.255% | –
32 | O=Cc1ccc(OCCCOc2cccc3cccnc23)cc1 | – | inconclusive: 25.1 µM [falling, single point]

Later entries

Row | Compound | activity change, negative = inhibition | Potency
43 | CC(C)c1ccc(CNc2ncc(Br)cn2)cc1 | inconclusive: 8.77% | –
44 | CCOC(=O)c1nc2cc3n(c(CC(C)C)c-2c1C)CC(C)=C3C | – | inconclusive: 13 µM [activator, single point]
45 | CC(C)c1ccc2nc(NC(=O)C3CC3)sc2c1 | inactive | –
46 | Cc1cccc(C(=O)Nc2cccc(C(=O)N/N=C/c3cccc(C)n3)c2)c1 | inconclusive: -7.88% | –
47 | CCOC(=O)c1cc(-c2ccccc2)n(CCC(=O)Nc2ccc(C(F)(F)F)cc2)c1C | – | inconclusive: 11.2 µM [falling, partial curve, poor fit]
48 | O=C(NNc1nc2cc3c(cc2s1)OCO3)c1cccc(F)c1 | inconclusive: -13.9% | –
49 | Cc1cccc(NC(=S)NC2CC3CCCC(C2)N3Cc2cccs2)c1C (centres undefined) | inactive | –
50 | O=C(COC(=O)CCc1nc2ccccc2c(=O)[nH]1)Nc1ccccc1OC(F)F | inactive | –
51 | Cc1nn2c(NCCCn3ccnc3)cc(C(C)C)nc2c1-c1ccccc1 | inconclusive: -21.4% | –
52 | Cc1nn(Cc2ccccc2Cl)c2sc(C(=O)OC3CCCC3=O)cc12 (centres undefined) | – | inconclusive: 8.91 µM [falling, partial curve, poor fit]
53 | CCN(C(=O)CSc1nnc(-c2ccco2)n1C)c1c(N)n(Cc2ccccc2)c(=O)[nH]c1=O | inconclusive: -0.137% | –
54 | [O-]/[N+](=C\c1ccc(F)cc1)c1ccccc1 | inconclusive: 25.5% | –
55 | CC1CCN(S(=O)(=O)c2cccc(C(=O)NC3CCCC3)c2)CC1 | inconclusive: -1.13% | –
56 | CN(c1ncnc2c1c(-c1ccccc1)cn2-c1ccc(F)cc1)C1CCCCC1 | inconclusive: 19.8% | –
57 | Cc1cc2occ(CC(=O)N(C)CC(=O)Nc3ccc(F)cc3)c2cc1C | inactive | –
58 | COc1ccc(NC(=O)c2ccccc2O)c(OC)c1 | – | inconclusive: 4.61 µM [falling, partial curve]
59 | CC(C)Nc1nc(Oc2ccc(=O)n(-c3ccccc3)n2)nc(N(C)C)n1 | inconclusive: 2.54% | –
60 | OCCNC(=S)Nc1cccc(Cl)c1Cl | – | inconclusive: 35.5 µM [falling, partial curve, poor fit]
61 | O=C1CCCC/C1=C/Nc1cccc(C(F)(F)F)c1 | inconclusive: 5.75% | –
62 | C=CCNC(=O)C(C#N)c1nc2ccccc2nc1N1CCCCCC1 (centres undefined) | inconclusive: -12.9% | –
63 | CCOC(=O)c1cc2c(=O)n3ccccc3nc2n(CCCOC)c1=NC(=O)c1cccnc1 | inactive | –

Row | Compound | activity change, negative = inhibition | Potency
64 | Cc1nc(-c2cccs2)sc1C(=O)O | inconclusive: 20.6% | –
65 | Cc1cc(C)c(-c2csc(NC(=O)C3=COCCO3)n2)c(C)c1 | inactive | –
66 | CCC(COC)NCc1cn(-c2ccc(F)cc2F)nc1-c1ccccc1C (centres undefined) | – | inconclusive: 35.5 µM [falling, partial curve, poor fit]
67 | Cc1ccccc1OCc1nc2ccccc2c(=O)n1/N=C/c1c[nH]c2ccccc12 | inconclusive: -14.5% | –
68 | CC(C)c1onc(C(=O)N2CCCCC2)c1[N+](=O)[O-] | inconclusive: 4.14% | –
69 | CCOC(=O)c1sc(NC(=O)CSC(=S)N2CCOCC2)nc1C | – | inconclusive: 11.2 µM [falling, partial curve]
70 | O=C(NCCN1C(=O)S/C(=C\c2ccc(OC(F)F)cc2)C1=O)C1=COCCO1 | – | inconclusive: 20.6 µM [falling, single point]
71 | Cc1sc2ncnc(N/N=C/c3cccc(O)c3)c2c1C | inactive | –
72 | Cc1cc(=O)n(C)c(=O)n1CCCCCN1CCCC1 | inconclusive: -0.232% | –
73 | O=C(NCc1ccco1)C1CC2CCC1C2 (centres undefined) | inconclusive: 22.9% | –
74 | CCOC(=O)C1=C(N)Oc2ccc3ccccc3c2C1c1cccc(O)c1 (centres undefined) | inconclusive: 5.2% | –
75 | Cn1c(N)c(C(=O)COC(=O)C2CCCCC2)c(=O)n(C)c1=O | – | inconclusive: 4.11 µM [rising, full curve, poor fit]
76 | COc1ccc(CNC(=O)COc2ccc(C(=O)c3ccc(F)cc3)cc2)cc1 | inconclusive: -18.6% | –
77 | O=C(CNC(=O)c1ccco1)NCC(=O)OCc1ccc(F)cc1 | inconclusive: 19.1% | –
78 | COc1cccc(NC(=O)c2ccc(C(=O)c3ccccc3)o2)c1 | inconclusive: -26% | –
79 | CN1C(=O)C(CC(=O)NCC2CCCCC2)SC1=Nc1ccccc1 (centres undefined) | – | inconclusive: 0.112 µM [falling, full curve, poor fit]
80 | O=C(NCCCSc1ccccc1)c1cc(Br)ccc1O | inconclusive: -7.84% | –
81 | Cc1[nH]c(=O)[nH]c1CN1CCCCC1 | inconclusive: 6.28% | –
82 | CCC1CCCCN1C(=O)COC(=O)c1cc(Br)ccc1Cl (centres undefined) | inconclusive: -0.932% | –
83 | CCOC(=O)c1c(C)n(C)c2ccc(OCC(O)CNC(CC)CO)cc12 (centres undefined) | inactive | –
84 | CCCC1OC2CC3C4CCC5=CC(=O)C=CC5(C)C4C(O)CC3(C)C2(C(=O)O)O1 (centres undefined) | inconclusive: -7.41% | –
